Measurements reported in PubChem BioAssay AID1224828 (NIAID, 2016).
In all, the deposit lists about 17,000 reagents; this is a random part of them. Over the whole deposit, 762 (4.5%) are marked active. 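Active calls include both raised and lowered p65 entry, mostly lowered; wells with fewer than 50 cells lack a z-score.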 The raw values are shown without normalisation.

- Purpose: 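Regulators linking TLR4 signalling to p65 nuclear translocation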 (primary screen)
- System: mouse RAW264.7 G9 macrophage reporter cells (GFP-p65, Tnf promoter-mCherry)
- Knock-down reagent: siRNA pool against mouse genes, 100 nM
- Time to read-out: 2 days siRNA transfection, then 40 min LPS before fixation
- Treatment: LPS (Salmonella minnesota R595) at 10 ng/ml
- Measured: 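Microscopy ratio of nuclear to perinuclear-ring GFP-p65 signal, scaled to the plate median; gene score is the average of two replicate robust z-scores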
- Direction: p65 translocation robust z-score: higher = more nuclear NF-kappaB p65 after LPS than the plate median; nuclear/cytoplasmic p65 ratio: higher = more nuclear NF-kappaB p65
- Active means: 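Called active when z exceeds 3.3 or falls under -1.56 (median of Tlr4 controls), giving activity score of at least 50; no calls for control wells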
- Meaning of the calls: active = hit (p65 shift raised or lowered); inactive = no clear change

{"Gene": "Ifnz (GeneID 319146)", "p65 translocation robust z-score": 0.59, "nuclear/cytoplasmic p65 ratio, rep 1": 1.83, "nuclear/cytoplasmic p65 ratio, rep 2": 1.61, "low cell count flag": "enough cells to score", "outcome": "inactive"}
{"Gene": "Lrfn5 (GeneID 238205)", "p65 translocation robust z-score": 1.59, "nuclear/cytoplasmic p65 ratio, rep 1": 1.94, "nuclear/cytoplasmic p65 ratio, rep 2": 1.8, "low cell count flag": "enough cells to score", "outcome": "inactive"}
{"Gene": "Prr15 (GeneID 78004)", "nuclear/cytoplasmic p65 ratio, rep 1": 1.78, "nuclear/cytoplasmic p65 ratio, rep 2": 1.24, "low cell count flag": "fewer than 50 cells per well; well left out of scoring", "outcome": "inactive"}
{"Gene": "Dnah2 (GeneID 327954)", "p65 translocation robust z-score": -0.14, "nuclear/cytoplasmic p65 ratio, rep 1": 1.48, "nuclear/cytoplasmic p65 ratio, rep 2": 1.6, "low cell count flag": "enough cells to score", "outcome": "inactive"}
{"Gene": "Hkdc1 (GeneID 216019)", "p65 translocation robust z-score": 0.62, "nuclear/cytoplasmic p65 ratio, rep 1": 1.65, "nuclear/cytoplasmic p65 ratio, rep 2": 1.97, "low cell count flag": "enough cells to score", "outcome": "inactive"}
{"Gene": "Cct5 (GeneID 12465)", "p65 translocation robust z-score": -1.27, "nuclear/cytoplasmic p65 ratio, rep 1": 1.24, "nuclear/cytoplasmic p65 ratio, rep 2": 1.22, "low cell count flag": "enough cells to score", "outcome": "inactive"}
{"Gene": "Arl6ip5 (GeneID 65106)", "p65 translocation robust z-score": 0.66, "nuclear/cytoplasmic p65 ratio, rep 1": 1.45, "nuclear/cytoplasmic p65 ratio, rep 2": 1.68, "low cell count flag": "enough cells to score", "outcome": "inactive"}
{"Gene": "Lrig3 (GeneID 320398)", "p65 translocation robust z-score": -0.69, "nuclear/cytoplasmic p65 ratio, rep 1": 1.33, "nuclear/cytoplasmic p65 ratio, rep 2": 1.45, "low cell count flag": "enough cells to score", "outcome": "inactive"}
{"Gene": "Unc119 (GeneID 22248)", "p65 translocation robust z-score": 0.04, "nuclear/cytoplasmic p65 ratio, rep 1": 1.52, "nuclear/cytoplasmic p65 ratio, rep 2": 1.5, "low cell count flag": "enough cells to score", "outcome": "inactive"}
{"Gene": "Cab39l (GeneID 69008)", "nuclear/cytoplasmic p65 ratio, rep 1": 1.39, "nuclear/cytoplasmic p65 ratio, rep 2": 1.37, "low cell count flag": "fewer than 50 cells per well; well left out of scoring", "outcome": "inactive"}

3 entries from above, reformatted.
| Gene | p65 translocation robust z-score | nuclear/cytoplasmic p65 ratio, rep 1 | nuclear/cytoplasmic p65 ratio, rep 2 | low cell count flag | outcome |
| --- | --- | --- | --- | --- | --- |
| Arl6ip5 (GeneID 65106) | 0.66 | 1.45 | 1.68 | enough cells to score | inactive |
| Lrig3 (GeneID 320398) | -0.69 | 1.33 | 1.45 | enough cells to score | inactive |
| Unc119 (GeneID 22248) | 0.04 | 1.52 | 1.5 | enough cells to score | inactive |

Next reagents:
{"Gene": "Epn3 (GeneID 71889)", "nuclear/cytoplasmic p65 ratio, rep 1": 1.04, "nuclear/cytoplasmic p65 ratio, rep 2": 1.21, "low cell count flag": "fewer than 50 cells per well; well left out of scoring", "outcome": "inactive"}
{"Gene": "Neurl3 (GeneID 214854)", "p65 translocation robust z-score": -0.89, "nuclear/cytoplasmic p65 ratio, rep 1": 1.7, "nuclear/cytoplasmic p65 ratio, rep 2": 1.31, "low cell count flag": "enough cells to score", "outcome": "inactive"}
{"Gene": "Arv1 (GeneID 68865)", "p65 translocation robust z-score": 2.43, "nuclear/cytoplasmic p65 ratio, rep 1": 1.73, "nuclear/cytoplasmic p65 ratio, rep 2": 1.73, "low cell count flag": "enough cells to score", "outcome": "inactive"}
{"Gene": "St3gal2 (GeneID 20444)", "p65 translocation robust z-score": 1.53, "nuclear/cytoplasmic p65 ratio, rep 1": 1.61, "nuclear/cytoplasmic p65 ratio, rep 2": 1.43, "low cell count flag": "enough cells to score", "outcome": "inactive"}
{"Gene": "Galk1 (GeneID 14635)", "p65 translocation robust z-score": -1.29, "nuclear/cytoplasmic p65 ratio, rep 1": 1.52, "nuclear/cytoplasmic p65 ratio, rep 2": 1.19, "low cell count flag": "enough cells to score", "outcome": "inactive"}
{"Gene": "Rhot2 (GeneID 214952)", "nuclear/cytoplasmic p65 ratio, rep 1": 1.41, "nuclear/cytoplasmic p65 ratio, rep 2": 1.12, "low cell count flag": "fewer than 50 cells per well; well left out of scoring", "outcome": "inactive"}
{"Gene": "Exosc3 (GeneID 66362)", "p65 translocation robust z-score": 0.29, "nuclear/cytoplasmic p65 ratio, rep 1": 1.62, "nuclear/cytoplasmic p65 ratio, rep 2": 1.69, "low cell count flag": "enough cells to score", "outcome": "inactive"}
{"Gene": "Pomt2 (GeneID 217734)", "nuclear/cytoplasmic p65 ratio, rep 1": 1.22, "nuclear/cytoplasmic p65 ratio, rep 2": 1.15, "low cell count flag": "fewer than 50 cells per well; well left out of scoring", "outcome": "inactive"}
{"Gene": "Hk2 (GeneID 15277)", "p65 translocation robust z-score": -0.44, "nuclear/cytoplasmic p65 ratio, rep 1": 1.7, "nuclear/cytoplasmic p65 ratio, rep 2": 1.32, "low cell count flag": "enough cells to score", "outcome": "inactive"}
{"Gene": "Cpne7 (GeneID 102278)", "p65 translocation robust z-score": -0.28, "nuclear/cytoplasmic p65 ratio, rep 1": 1.5, "nuclear/cytoplasmic p65 ratio, rep 2": 1.29, "low cell count flag": "enough cells to score", "outcome": "inactive"}
{"Gene": "Castor2 (GeneID 80909)", "p65 translocation robust z-score": 0.53, "nuclear/cytoplasmic p65 ratio, rep 1": 1.61, "nuclear/cytoplasmic p65 ratio, rep 2": 1.59, "low cell count flag": "enough cells to score", "outcome": "inactive"}
